Measured values from patent publication US20200323920A1.
These are yes or no findings as the source states them, for the method shown. Some binding calls cover weakened binding; strength is not graded here.

Chains of the proteins cited; added tags and fusions are not shown. Lines headed by an entry give the natural chain unless they say otherwise; changes in a name come on top. A line that says so, or that is headed by a name, gives the form on record, which may keep a tag or linker.
recombinant human mesothelin (C-terminally containing 6-His) (manufactured by BioLegend, Inc.) (Q13421, form named): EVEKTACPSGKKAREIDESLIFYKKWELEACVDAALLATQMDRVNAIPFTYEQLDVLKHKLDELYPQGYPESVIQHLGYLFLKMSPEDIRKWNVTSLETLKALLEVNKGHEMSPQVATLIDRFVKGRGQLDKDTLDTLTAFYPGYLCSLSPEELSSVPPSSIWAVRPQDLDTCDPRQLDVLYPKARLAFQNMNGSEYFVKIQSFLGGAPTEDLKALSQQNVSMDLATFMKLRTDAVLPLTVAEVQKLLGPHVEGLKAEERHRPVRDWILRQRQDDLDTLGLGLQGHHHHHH

B1: anti-human mesothelin CAR having VH07(15)VL07 (signal peptide T) as the scFv region, on anti-human mesothelin CAR-IL-7/CCL19-expressing T cells (protein)
chain: QVQLQQSGPGLVTPSQTLSLTCAISGDSVSSNSATWNWIRQSPSRGLEWLGRTYYRSKWYNDYAVSVKSRMSINPDTSKNQFSLQLNSVTPEDTAVYYCARGMMTYYYGMDVWGQGTTVTVSSGILGSGGGGSGGGGSGGGGSQPVLTQSSSLSASPGASASLTCTLRSGINVGPYRIYWYQQKPGSPPQYLLNYKSDSDKQQGSGVPSRFSGSKDASANAGVLLISGLRSEDEADYYCMIWHSSAAVFGGGTQLTVLSIYIWAPLAGTCGVLLLSLVITRSKRSRLLHSDYMNMTPRRPGPTRKHYQPYAPPRDFAAYRSRFSVVKRGRKKLLYIFKQPFMRPVQTTQEEDGCSCRFPEEEEGGCELRVKFSRSADAPAYQQGQNQLYNELNLGRREEYDVLDKRRGRDPEMGGKPRRKNPQEGLYNELQKDKMAEAYSEIGMKGERRRGKGHDGLYQGLSTATKDTYDALHMQALPPR
B2: anti-human mesothelin CAR having VH07(15)VL07 (signal peptide P) as the scFv region, on anti-human mesothelin CAR-IL-7/CCL19-expressing T cells (protein)
chain: QVQLQQSGPGLVTPSQTLSLTCAISGDSVSSNSATWNWIRQSPSRGLEWLGRTYYRSKWYNDYAVSVKSRMSINPDTSKNQFSLQLNSVTPEDTAVYYCARGMMTYYYGMDVWGQGTTVTVSSGILGSGGGGSGGGGSGGGGSQPVLTQSSSLSASPGASASLTCTLRSGINVGPYRIYWYQQKPGSPPQYLLNYKSDSDKQQGSGVPSRFSGSKDASANAGVLLISGLRSEDEADYYCMIWHSSAAVFGGGTQLTVLSIYIWAPLAGTCGVLLLSLVITRSKRSRLLHSDYMNMTPRRPGPTRKHYQPYAPPRDFAAYRSRFSVVKRGRKKLLYIFKQPFMRPVQTTQEEDGCSCRFPEEEEGGCELRVKFSRSADAPAYQQGQNQLYNELNLGRREEYDVLDKRRGRDPEMGGKPRRKNPQEGLYNELQKDKMAEAYSEIGMKGERRRGKGHDGLYQGLSTATKDTYDALHMQALPPR
B3: anti-human mesothelin CAR having VH36(15)VL36 as the scFv region, on anti-human mesothelin CAR-IL-7/CCL19-expressing T cells (protein)
chain: QVQLQQSGPGLVTPSQTLSLTCAISGDSVSSNSATWNWIRQSPSRGLEWLGRTYYRSKWYNDYAVSVKSRMSINPDTSKNQFSLQLNSVTPEDTAVYYCARGMMTYYYGMDVWGQGTTVTVSSGILLSGGGGSGGGGSGGGGSQPVLTQSSSLSASPGASASLTCTLRSGINVGPRIYWYQQKPGSPPQYLLNYKSDSDKQQGSGVPSRFSGSKDASANAGVLLISGLRSEDEADYYCMIWHSSAAVFGGGTQLTVLSIYIWAPLAGTCGVLLLSLVITRSKRSRLLHSDYMNMTPRRPGPTRKHYQPYAPPRDFAAYRSRFSVVKRGRKKLLYIFKQPFMRPVQTTQEEDGCSCRFPEEEEGGCELRVKFSRSADAPAYQQGQNQLYNELNLGRREEYDVLDKRRGRDPEMGGKPRRKNPQEGLYNELQKDKMAEAYSEIGMKGERRRGKGHDGLYQGLSTATKDTYDALHMQALPPR
B4: anti-human mesothelin CAR having VL07(15)VH07 as the scFv region, on anti-human mesothelin CAR-IL-7/CCL19-expressing T cells (protein)
chain: QPVLTQSSSLSASPGASASLTCTLRSGINVGPYRIYWYQQKPGSPPQYLLNYKSDSDKQQGSGVPSRFSGSKDASANAGVLLISGLRSEDEADYYCMIWHSSAAVFGGGTQLTVLSGGGGSGGGGSGGGGSQVQLQQSGPGLVTPSQTLSLTCAISGDSVSSNSATWNWIRQSPSRGLEWLGRTYYRSKWYNDYAVSVKSRMSINPDTSKNQFSLQLNSVTPEDTAVYYCARGMMTYYYGMDVWGQGTTVTVSSGILGSIYIWAPLAGTCGVLLLSLVITRSKRSRLLHSDYMNMTPRRPGPTRKHYQPYAPPRDFAAYRSRFSVVKRGRKKLLYIFKQPFMRPVQTTQEEDGCSCRFPEEEEGGCELRVKFSRSADAPAYQQGQNQLYNELNLGRREEYDVLDKRRGRDPEMGGKPRRKNPQEGLYNELQKDKMAEAYSEIGMKGERRRGKGHDGLYQGLSTATKDTYDALHMQALPPR
B5: anti-human mesothelin CAR having VH07(25)VL07 as the scFv region, on anti-human mesothelin CAR-IL-7/CCL19-expressing T cells (protein)
chain: QVQLQQSGPGLVTPSQTLSLTCAISGDSVSSNSATWNWIRQSPSRGLEWLGRTYYRSKWYNDYAVSVKSRMSINPDTSKNQFSLQLNSVTPEDTAVYYCARGMMTYYYGMDVWGQGTTVTVSSGILGSSSADDAKKDAAKKDDAKKDDAKKDGQPVLTQSSSLSASPGASASLTCTLRSGINVGPYRIYWYQQKPGSPPQYLLNYKSDSDKQQGSGVPSRFSGSKDASANAGVLLISGLRSEDEADYYCMIWHSSAAVFGGGTQLTVLSIYIWAPLAGTCGVLLLSLVITRSKRSRLLHSDYMNMTPRRPGPTRKHYQPYAPPRDFAAYRSRFSVVKRGRKKLLYIFKQPFMRPVQTTQEEDGCSCRFPEEEEGGCELRVKFSRSADAPAYQQGQNQLYNELNLGRREEYDVLDKRRGRDPEMGGKPRRKNPQEGLYNELQKDKMAEAYSEIGMKGERRRGKGHDGLYQGLSTATKDTYDALHMQALPPR
B6: anti-human mesothelin CAR having VL07(25)VH07 as the scFv region, on anti-human mesothelin CAR-IL-7/CCL19-expressing T cells (protein)
chain: QPVLTQSSSLSASPGASASLTCTLRSGINVGPYRIYWYQQKPGSPPQYLLNYKSDSDKQQGSGVPSRFSGSKDASANAGVLLISGLRSEDEADYYCMIWHSSAAVFGGGTQLTVLSSSADDAKKDAAKKDDAKKDDAKKDGQVQLQQSGPGLVTPSQTLSLTCAISGDSVSSNSATWNWIRQSPSRGLEWLGRTYYRSKWYNDYAVSVKSRMSINPDTSKNQFSLQLNSVTPEDTAVYYCARGMMTYYYGMDVWGQGTTVTVSSGILGSIYIWAPLAGTCGVLLLSLVITRSKRSRLLHSDYMNMTPRRPGPTRKHYQPYAPPRDFAAYRSRFSVVKRGRKKLLYIFKQPFMRPVQTTQEEDGCSCRFPEEEEGGCELRVKFSRSADAPAYQQGQNQLYNELNLGRREEYDVLDKRRGRDPEMGGKPRRKNPQEGLYNELQKDKMAEAYSEIGMKGERRRGKGHDGLYQGLSTATKDTYDALHMQALPPR

Biological target: recombinant human mesothelin (C-terminally containing 6-His) (manufactured by BioLegend, Inc.) (human) (UniProt Q13421)
Test: flow cytometry; CAR T cells stained with recombinant human mesothelin-6-His and PE anti-6-His antibody

Binder	binding
B1	binds
B2	binds
B3	binds
B4	binds
B5	binds
B6	binds
